Assay results taken from paper PMC12768534.
These are yes or no findings as the source states them, for the method shown. Some binding calls cover weakened binding; strength is not graded here.

Sequences of proteins named here, by UniProt entry; tags and fusion partners are left off.
UniProt Q9JHX3: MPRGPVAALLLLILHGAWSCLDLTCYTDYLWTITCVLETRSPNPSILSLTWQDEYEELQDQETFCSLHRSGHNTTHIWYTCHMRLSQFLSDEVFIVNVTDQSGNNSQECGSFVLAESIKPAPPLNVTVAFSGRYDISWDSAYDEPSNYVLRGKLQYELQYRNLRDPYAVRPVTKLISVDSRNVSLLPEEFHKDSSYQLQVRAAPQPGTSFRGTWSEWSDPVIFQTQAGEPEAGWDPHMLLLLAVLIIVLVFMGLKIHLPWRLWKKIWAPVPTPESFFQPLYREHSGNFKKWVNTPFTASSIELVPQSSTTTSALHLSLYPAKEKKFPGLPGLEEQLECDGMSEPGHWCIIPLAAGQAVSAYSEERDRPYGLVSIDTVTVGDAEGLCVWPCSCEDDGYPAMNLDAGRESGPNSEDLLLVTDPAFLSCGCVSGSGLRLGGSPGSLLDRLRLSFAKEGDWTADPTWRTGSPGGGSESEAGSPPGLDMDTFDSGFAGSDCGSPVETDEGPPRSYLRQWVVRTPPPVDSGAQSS

Target: biotinylated mIL-21R (mouse) (UniProt Q9JHX3)
Assay: BLI; mIL-21 and 21h10 incubated in PBS or murine serum for 1-240 minutes at 37°C, then binding to mIL-21R; both purified

- binding: binds
B1: 21h10 (designed binder)
chain: DEEELKEIMKEAAECARKELEKLDNTDEDTRWLKITLKKIVRMANRIVRMREREADSKRFEIRMRGLIDIADHVKREFASEDLKEVMERAKSAAQKALGRWL
